# Assay results

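A panel of P. falciparum strains inside erythrocytes is exposed to compounds for three days, then a DNA-binding dye reports the amount of parasite DNA. Each compound was titrated across a series from about 0.000037 to 29 µM. The number is the fitted AC50, the concentration giving a half-maximal change in signal; a lower value means higher potency, whether the curve shows a decrease or an increase. Calls follow the curve class and fit quality: every row here is inconclusive, covering signal-raising curves and weak, poorly fitted, partial or highest-dose-only inhibition curves.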

Values are in µM. Every entry below has the call inconclusive. Only part of the assay is shown, chiefly results filed as inconclusive. Potencies fitted to partial, single-point or poorly fitting curves are rough.

| # | structure | setting | potency (µM) | remark |
|---|---|---|---|---|
| 1 | `CCN(CC)CCOc1ccc(-c2nc3cc(Cl)ccc3s2)cc1` | P94_40 | 17.78 | inhibitor, single point |
| 2 | `CCN(CC)CCOc1ccc(-c2nc3cc(Cl)ccc3s2)cc1` | CP335 | 13.46 | inhibitor, single point |
| 3 | `CCN(CC)CCOc1ccc(-c2nc3cc(Cl)ccc3s2)cc1` | ECU | 10 | inhibitor, single point |
| 4 | `CCN(CC)CCOc1ccc(-c2nc3cc(Cl)ccc3s2)cc1` | PAD | 17.78 | inhibitor, single point |
| 5 | `CCN(CC)CCOc1ccc(-c2nc3cc(Cl)ccc3s2)cc1` | 3D7 | 17.78 | inhibitor, single point |
| 6 | `CCN(CC)CCOc1ccc(-c2nc3cc(Cl)ccc3s2)cc1` | C2A | 11.22 | inhibitor, single point |
| 7 | `CN1C(=O)NC(=O)C(C)(C2=CCCCC2)C1=O` (stereo not shown) | CP335 | 1.901 | inhibitor, single point |
| 8 | `CN1C(=O)NC(=O)C(C)(C2=CCCCC2)C1=O` (stereo not shown) | CP191 | 3.981 | inhibitor, single point |
| 9 | `CN1C(=O)NC(=O)C(C)(C2=CCCCC2)C1=O` (stereo not shown) | P94_40 | 15.85 | inhibitor, single point |
| 10 | `CN1C(=O)NC(=O)C(C)(C2=CCCCC2)C1=O` (stereo not shown) | parasite line B | 17.78 | inhibitor, single point |
| 11 | `CN1C(=O)NC(=O)C(C)(C2=CCCCC2)C1=O` (stereo not shown) | CP265 | 2.818 | inhibitor, single point |
| 12 | `CC(=O)c1ccc2c(c1)N(CCCN1CCC(CCO)CC1)c1ccccc1S2` | CP260 | 3.162 | inhibitor, single point |
| 13 | `CC(=O)c1ccc2c(c1)N(CCCN1CCC(CCO)CC1)c1ccccc1S2` | DIV14 | 2.279 | inhibitor, partial curve |
| 14 | `CC(=O)c1ccc2c(c1)N(CCCN1CCC(CCO)CC1)c1ccccc1S2` | CP194 | 2.279 | inhibitor, partial curve |
| 15 | `CC(=O)c1ccc2c(c1)N(CCCN1CCC(CCO)CC1)c1ccccc1S2` | P93_24 | 3.162 | inhibitor, single point |
| 16 | `CC(=O)c1ccc2c(c1)N(CCCN1CCC(CCO)CC1)c1ccccc1S2` | 7G8 | 6.31 | inhibitor, single point |
| 17 | `CC(=O)c1ccc2c(c1)N(CCCN1CCC(CCO)CC1)c1ccccc1S2` | DIV17 | 9.074 | inhibitor, partial curve, poor fit |
| 18 | `CC(=O)c1ccc2c(c1)N(CCCN1CCC(CCO)CC1)c1ccccc1S2` | CP286 | 3.981 | inhibitor, single point |
| 19 | `CC(=O)c1ccc2c(c1)N(CCCN1CCC(CCO)CC1)c1ccccc1S2` | ICS | 3.548 | inhibitor, partial curve, poor fit |
| 20 | `CC(=O)c1ccc2c(c1)N(CCCN1CCC(CCO)CC1)c1ccccc1S2` | Dd2 | 4.467 | inhibitor, partial curve |
| 21 | `CC(=O)c1ccc2c(c1)N(CCCN1CCC(CCO)CC1)c1ccccc1S2` | CP237 | 2.818 | inhibitor, partial curve |
| 22 | `CC(=O)c1ccc2c(c1)N(CCCN1CCC(CCO)CC1)c1ccccc1S2` | CP335 | 8.087 | inhibitor, single point |
| 23 | `CC(=O)c1ccc2c(c1)N(CCCN1CCC(CCO)CC1)c1ccccc1S2` | CP203 | 3.22 | inhibitor, partial curve |
| 24 | `CC(=O)c1ccc2c(c1)N(CCCN1CCC(CCO)CC1)c1ccccc1S2` | CP215 | 8.087 | inhibitor, single point |
| 25 | `CC(=O)c1ccc2c(c1)N(CCCN1CCC(CCO)CC1)c1ccccc1S2` | GB4 | 5.103 | inhibitor, partial curve |
| 26 | `CC(=O)c1ccc2c(c1)N(CCCN1CCC(CCO)CC1)c1ccccc1S2` | PC26 | 4.053 | inhibitor, partial curve |
| 27 | `Cl/C(=C\n1cncn1)c1ccc(Cl)cc1Cl` | ICS | 17.78 | inhibitor, single point |
| 28 | `Cl/C(=C\n1cncn1)c1ccc(Cl)cc1Cl` | 7G8 | 12.59 | inhibitor, single point |
| 29 | `Cc1ncc(CO)c(CN)c1O` | W2 | 0.0024 | inhibitor, full curve, poor fit |
| 30 | `CCN(CC)CCNC(=O)c1cc(S(C)(=O)=O)ccc1OC` | CP269 | 5.726 | inhibitor, single point |
| 31 | `CCN(CC)CCNC(=O)c1cc(S(C)(=O)=O)ccc1OC` | CP194 | 6.424 | inhibitor, single point |
| 32 | `CCN(CC)CCNC(=O)c1cc(S(C)(=O)=O)ccc1OC` | CP268 | 5.726 | inhibitor, single point |
| 33 | `CCN(CC)CCNC(=O)c1cc(S(C)(=O)=O)ccc1OC` | CP203 | 8.087 | inhibitor, single point |
| 34 | `CCN(CC)CCNC(=O)c1cc(S(C)(=O)=O)ccc1OC` | DIV14 | 8.087 | inhibitor, single point |
| 35 | `CCN(CC)CCNC(=O)c1cc(S(C)(=O)=O)ccc1OC` | CP201 | 8.087 | inhibitor, single point |
| 36 | `CCN(CC)CCNC(=O)c1cc(S(C)(=O)=O)ccc1OC` | CP291 | 5.103 | inhibitor, single point |
| 37 | `CCN(CC)CCNC(=O)c1cc(S(C)(=O)=O)ccc1OC` | PC26 | 8.087 | inhibitor, single point |
| 38 | `CCN(CC)CCNC(=O)c1cc(S(C)(=O)=O)ccc1OC` | CP329 | 8.087 | inhibitor, single point |
| 39 | `CCN(CC)CCNC(=O)c1cc(S(C)(=O)=O)ccc1OC` | CP215 | 6.424 | inhibitor, partial curve |
| 40 | `CCN(CC)CCNC(=O)c1cc(S(C)(=O)=O)ccc1OC` | CP315 | 8.087 | inhibitor, single point |
| 41 | `CCN(CC)CCNC(=O)c1cc(S(C)(=O)=O)ccc1OC` | CP266 | 7.208 | inhibitor, single point |
| 42 | `CCN(CC)CCNC(=O)c1cc(S(C)(=O)=O)ccc1OC` | DIV30 | 8.087 | inhibitor, single point |
| 43 | `CCN(CC)CCNC(=O)c1cc(S(C)(=O)=O)ccc1OC` | CP211 | 7.208 | inhibitor, single point |

The last 4 entries again:

| structure | setting | potency (µM) | remark |
|---|---|---|---|
| `CCN(CC)CCNC(=O)c1cc(S(C)(=O)=O)ccc1OC` | CP315 | 8.087 | inhibitor, single point |
| `CCN(CC)CCNC(=O)c1cc(S(C)(=O)=O)ccc1OC` | CP266 | 7.208 | inhibitor, single point |
| `CCN(CC)CCNC(=O)c1cc(S(C)(=O)=O)ccc1OC` | DIV30 | 8.087 | inhibitor, single point |
| `CCN(CC)CCNC(=O)c1cc(S(C)(=O)=O)ccc1OC` | CP211 | 7.208 | inhibitor, single point |

Data taken from PubChem BioAssay AID504749, deposited by NCATS (2011).